In PMC6322727:

Target: T1, FLAG-DGAT2 (diacylglycerol acyltransferase-2) (murine (said of the DGAT2 in BioId/DGAT2)) (UniProt Q9DCV3)
T1 sequence: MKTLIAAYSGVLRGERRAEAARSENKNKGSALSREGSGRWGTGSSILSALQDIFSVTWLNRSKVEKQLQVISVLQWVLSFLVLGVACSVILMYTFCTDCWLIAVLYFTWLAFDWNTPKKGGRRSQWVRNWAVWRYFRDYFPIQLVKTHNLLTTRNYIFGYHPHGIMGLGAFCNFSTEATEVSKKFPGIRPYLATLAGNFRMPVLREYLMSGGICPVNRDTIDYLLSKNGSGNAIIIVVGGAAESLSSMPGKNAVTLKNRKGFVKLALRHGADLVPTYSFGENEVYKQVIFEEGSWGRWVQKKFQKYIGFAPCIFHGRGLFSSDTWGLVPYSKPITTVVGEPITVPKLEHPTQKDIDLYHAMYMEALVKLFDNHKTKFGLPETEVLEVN
Test: co-IP; anti-FLAG agarose immunoprecipitate of HEK-293T cells expressing FL-DGAT2, solubilised with 0.5% CHAPS in PBS, 4 C, eluted with FLAG peptide; immunoblot with anti-calnexin and anti-PDI; control: cells expressing Myc-DGAT2

binding: no binding
Substance: protein disulfide isomerase (human (endogenous in HEK-293T))

These are yes or no findings as the source states them, for the method shown. Binding seen in cells or lysates may run through a third protein. Where a sequence is shown, tags or fusion partners need not be part of it.
